Values from PubChem BioAssay AID1671195 (Yale University, 2021).

Test: 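Genes whose knockdown alters LDL uptake in liver cancer cells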 (primary screen)
Cell system: human Huh7 hepatoma cells
Knock-down reagent: siRNA pool against human genes, 18 nM
Duration: about 2 to 2.5 days of knockdown, then 8 h LDL uptake
Treatment: DiI-labelled LDL at 30 µg/ml for 8 h, in lipoprotein-deficient serum medium
Read-out: 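Per-cell DiI-LDL intensity by automated imaging; well means scaled to the plate median and given as a robust z-score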
Scale: robust z-score: higher = more LDL uptake after knockdown
Rule for the call: 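a gene counts as active if at least two replicate z-scores exceed ±2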
This is one part, drawn at random, of about 22,000 deposited reagents. Of all reagents, about 1,510 (6.9%) are marked active. 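Active includes knockdowns raising or lowering LDL uptake; positive z-scores mean more uptake, negative mean less.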 Entries without a mark were called inactive.

Target gene | robust z-score, replicate 1 | robust z-score, replicate 2 | robust z-score, replicate 3
TRPM8 | 0.52 | 0.102 | -0.314
HEXIM1 | 0.692 | -0.698 | 1.6
OR6Q1 | 1.39 | 1.74 | 1.62
ELMO3 | -1.26 | -1.18 | -1.08
ZNF707 | 0.143 | -0.0561 | -0.214
SNRPA | 0.653 | 0.304 | -0.0835
CLCA3P | -1.51 | -1.07 | -1.79
NOTCH4 | 0.361 | 0.724 | 0.391
GSTCD | -0.687 | -0.349 | -0.827
IARS2 | -0.283 | 0.375 | -0.418
LOC441930 (retired record) | 0.757 | -0.0931 | 0.244
WNT7A | 0.938 (active) | 2.9 | 2.44
SLC52A3 | 0.212 | 1.82 | 1.89
TBR1 | 1.34 (active) | 2.7 | 2.23
FANCD2 | -0.843 | 0.276 | -0.492
RPUSD3 | 0.252 | 0.337 | 0.446
AAMDC | 2.03 | 0.447 | 1.67
STK33 | 1.63 | 3.18 | 1.77
DTD1 | -0.638 | -0.0653 | -0.371
CCDC137 | -0.106 | -0.00524 | -0.129
LOC440873 (retired record) | -0.0608 | -0.442 | -0.133
ZNF714 | -2.33 (active) | -1.6 | -2.14
NUDCD3 | -0.2 | 0.824 | -0.851
TMEM184A | -0.55 | -1.03 | -1.03
IQCB2P | -0.789 | -0.858 | -0.733
CCNH | -1.11 | -1.3 | -1.18
LOC440931 (retired record) | 0.277 | -0.206 | 0.0377
LOC401032 (retired record) | -0.772 | -1.11 | -1.26

2 entries from above, showing only “robust z-score, replicate 3”:
ZNF707	-0.214
SNRPA	-0.0835
